{"sequences": {"note": "Sequences of proteins named here, by UniProt entry; tags and fusion partners are left off. A change or cut given only in a name is not applied to a line headed by its entry.", "UniProt C7C422": "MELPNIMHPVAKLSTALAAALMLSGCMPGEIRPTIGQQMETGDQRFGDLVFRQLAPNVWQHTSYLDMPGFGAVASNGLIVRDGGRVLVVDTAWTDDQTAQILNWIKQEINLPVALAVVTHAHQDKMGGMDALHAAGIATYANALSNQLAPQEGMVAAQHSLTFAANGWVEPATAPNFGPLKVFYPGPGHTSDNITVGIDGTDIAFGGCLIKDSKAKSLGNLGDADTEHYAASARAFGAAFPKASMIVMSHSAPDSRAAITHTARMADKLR"}, "source": "PubChem BioAssay AID1794845", "about": "(National Center for Advancing Translational Sciences (NCATS), 2023)", "note": "Among all 6,900 compounds or so, fewer than 10 were called active. The call rests on the fitted dose curve; in most records, active means well fitted curve in the direction sought with a large enough effect; inconclusive means small, poorly fitted or top-dose-only effect, or another doubt; inactive means no such curve, though single readings can be large or run the other way. Some of the results follow.", "data": [{"biological_target": "Metallo-beta-lactamase type 2 (Klebsiella pneumoniae) (UniProt C7C422)", "assay": "qHTS to identify inhibitors of the New Delhi Metallo-beta-lactamase (NDM): primary screen against the NCATS Gemini Collection; further: % of control where 0% means no effect", "details": "NDM-1 enzyme, meropenem hydrolysis, absorbance 300 nm; at 38.4 µM (top of the series) unless noted", "summary_of_the_method": "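NDM-1 at 2 nM final in 50 mM HEPES pH 7.0, 1 uM ZnSO4, 0.01% Tween20, preincubated >30 min with compound. Meropenem 50 uM final added; absorbance at 300 nm after 30 min.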", "values": [{"smiles": "CNC(=O)[C@@H]1CN(C(=O)CCc2cccc(OC)c2)C[C@H]1c1n[nH]c(C)n1", "activity % (negative = inhibition)": "inactive: 7.81%"}, {"smiles": "O=C1CCC(C(=O)N2CCOCC2)CN1CCCc1ccccc1", "note": "(stereo not given)", "activity % (negative = inhibition)": "inactive: -5.82%"}, {"smiles": "Cn1nc(C2CCCNC2)c2c(C(=O)NC3CC3)cc(C3CC3)nc21", "note": "(stereo not given)", "activity % (negative = inhibition)": "inactive: 2.23%"}, {"smiles": "COc1ccc(C(=O)N2CCC(c3ncc(C)n3C(C)C)C2)cc1", "note": "(stereo not given)", "activity % (negative = inhibition)": "inactive: -1.26%"}, {"smiles": "COCC1CN(Cc2ccc(C(C)C)cc2)CC12CCNCC2", "note": "(stereo not given)", "activity % (negative = inhibition)": "inactive: 41.6%"}, {"smiles": "O=C1CCN(C(=O)C2(c3ccccc3)CC2)CCCCCCN1", "activity % (negative = inhibition)": "inactive: -17.5%"}, {"smiles": "O=C(NCCNc1cccnc1)C1CCC(=O)N(C2CC2)C1", "note": "(stereo not given)", "activity % (negative = inhibition)": "inactive: 13.8%"}, {"smiles": "CC(C)(Oc1nn(CCN2CCOCC2)c2ccccc12)C(=O)NCc1ccncc1", "activity % (negative = inhibition)": "inactive: 12.5% [at 57.5 µM]"}, {"smiles": "c1ccc(CCN(Cc2ccccc2)[C@H]2C[C@H]3CCOC[C@@]3(c3ccccc3)C2)cc1", "activity % (negative = inhibition)": "inactive: -0.699%"}, {"smiles": "NC(=O)c1ccc(O[C@@H]2COCC[C@H]2NC(=O)Cc2ccc(O)cc2)cc1", "activity % (negative = inhibition)": "inactive: 0.465%"}, {"smiles": "CCCOCC(=O)N1CCCC(c2cc(N3CCCC3)nc(C)n2)C1", "note": "(stereo not given)", "activity % (negative = inhibition)": "inactive: 2.17%"}, {"smiles": "Cc1ccccc1N1CCCN(Cc2ccccc2OCCO)CC1", "activity % (negative = inhibition)": "inactive: 9.05%"}, {"smiles": "C[S+](=O)([O-])N1CCC(c2nnc3n2C(C(=O)NC2CCCCC2)CC3)CC1", "note": "(stereo not given)", "activity % (negative = inhibition)": "inactive: 13.9%"}, {"smiles": "Cc1cccc(OCC(=O)N2CCCC(c3[nH]ccc3C(N)=O)C2)c1", "note": "(stereo not given)", "activity % (negative = inhibition)": "inactive: -2.52%"}, {"smiles": "CCOc1ccc(C(=O)NC2CCN(c3cc(-c4ccc(OC)cc4)[nH]n3)C2)cc1OCC", "note": "(stereo not given)", "activity % (negative = inhibition)": "inactive: -0.635%"}, {"smiles": "O=C(Cc1ccccc1)Nc1ccc2n(c1=O)C[C@H]1C[C@@H]2CN(S(=O)(=O)c2ccc(Cl)cc2)C1", "activity % (negative = inhibition)": "inactive: 20.8%"}, {"smiles": "CCN(CC)C(=O)CC1Sc2ncccc2N(CC(C)C)C1=O", "note": "(stereo not given)", "activity % (negative = inhibition)": "inactive: 4.57%"}, {"smiles": "CC(C)N1C[C@@H](CO)[C@H](c2nc(-c3cccnc3)no2)C1", "activity % (negative = inhibition)": "inactive: 19.7%"}, {"smiles": "Cc1nnc2n1C(C)CN(C(=O)CCn1cnc3ccccc3c1=O)C2", "note": "(stereo not given)", "activity % (negative = inhibition)": "inactive: 2.76%"}, {"smiles": "COc1cccc([S+](=O)([O-])N2CCn3cc(C(=O)NCc4ccc(Cl)nc4)nc3C2)c1", "activity % (negative = inhibition)": "inactive: 0.228%"}, {"smiles": "COc1ccccc1CC(=O)N1CCN(c2cc(-c3cccs3)[nH]n2)CC1", "activity % (negative = inhibition)": "inactive: 2.18%"}, {"smiles": "O=C(c1cccnc1)N1CC[C@H](c2nc3ccccc3o2)C1", "activity % (negative = inhibition)": "inactive: -1.74% [at 57.5 µM]"}, {"smiles": "CC(c1ccc(-c2ccc(CC(=O)O)cn2)cc1)N1CCCCC1", "note": "(stereo not given)", "activity % (negative = inhibition)": "inactive: 4.97%"}, {"smiles": "CCn1nc2n(c1=O)CCN(Cc1cc(C)ccc1C)C2=O", "activity % (negative = inhibition)": "inactive: -1.37%"}, {"smiles": "Cn1ncc(N2CCC(C(=O)N3CCC(C(N)=O)(N4CCCCC4)CC3)C2)cc1=O", "note": "(stereo not given)", "activity % (negative = inhibition)": "inactive: 6.47%"}, {"smiles": "CC(C)(C)c1ccc(CN2CC3(COCC2=O)CN(c2cnccn2)C3)cc1", "activity % (negative = inhibition)": "inactive: 7.28% [at 57.5 µM]"}, {"smiles": "COc1ccc(-n2nc(C3CCCN(C(=O)c4ccc(Cl)nc4)C3)[nH]c2=O)cc1", "note": "(stereo not given)", "activity % (negative = inhibition)": "inactive: -3.19%"}, {"smiles": "CS(=O)(=O)CCNC(=O)C1CCCN(C2CCN(Cc3cccnc3)CC2)C1", "note": "(stereo not given)", "activity % (negative = inhibition)": "inactive: 0.81%"}, {"smiles": "COc1ccc(NC(=O)c2c(C)nc3n2CCC(Nc2ccccc2C)C3)cn1", "note": "(stereo not given)", "activity % (negative = inhibition)": "inactive: 9.21% [at 57.5 µM]"}, {"smiles": "O=c1[nH]c(N2CCc3ccccc3C2)nc2c1CCN(Cc1cccs1)CC2", "activity % (negative = inhibition)": "inactive: -4.65%"}, {"smiles": "CN(C)Cc1nnc(C2CC(NC(=O)c3conc3-c3ccccc3)C2)n1C", "note": "(stereo not given)", "activity % (negative = inhibition)": "inactive: -0.0569%"}, {"smiles": "CCN1CC(c2nc(-c3ccc4nc[nH]c4c3)no2)CCC1=O", "note": "(stereo not given)", "activity % (negative = inhibition)": "inactive: -10.1%"}, {"smiles": "CCn1cc(CN(C)C(=O)CN2C(=O)C(Oc3ccc(F)cc3)C23CCCCC3)c(C)n1", "note": "(stereo not given)", "activity % (negative = inhibition)": "inactive: 3.25%"}, {"smiles": "Cc1cnc(-c2cccnc2)n1C1CCCN(CC2CCCCC2)C1", "note": "(stereo not given)", "activity % (negative = inhibition)": "inactive: 1.77%"}, {"smiles": "Cc1ccsc1C(=O)N1C[C@@H](F)C[C@H]1C(=O)N1CCCCC1", "activity % (negative = inhibition)": "inactive: -0.377%"}, {"smiles": "Cc1ccc(C)c(S(=O)(=O)N2[C@@H]3CC[C@H]2CC(NC(=O)c2ccc(F)cc2)C3)c1", "note": "(stereo not given in full)", "activity % (negative = inhibition)": "inactive: 5.58%"}, {"smiles": "CC(=O)N1CCN(C(=O)c2nc(-c3ccccc3)cs2)CC(O)C1", "note": "(stereo not given)", "activity % (negative = inhibition)": "inactive: -0.77%"}, {"smiles": "Cc1nnc([C@H]2CCN(C3CCN(C)CC3)C2)o1", "activity % (negative = inhibition)": "inactive: 0.078% [at 77.1 µM]"}, {"smiles": "COC(=O)c1ccc2nc(C[C@@H]3C[C@@H](C(C)C)[C@H](CNC(=O)c4cccnc4)C=C3C)[nH]c2c1", "activity % (negative = inhibition)": "inactive: 14.2%"}, {"smiles": "CN(CCN1CCCCCC1)C(=O)c1cc(COc2ccccc2)[nH]n1", "activity % (negative = inhibition)": "inactive: 41.3%"}, {"smiles": "CC(C)c1noc(Cn2nc(-c3ccccc3)c3ccccc3c2=O)n1", "activity % (negative = inhibition)": "inactive: -1.52%"}, {"smiles": "O[C@@H]1[C@@H](Cn2cc(C3CC3)nn2)C[C@@H](NCc2nccs2)[C@@H]1O", "activity % (negative = inhibition)": "inactive: 6.16%"}, {"smiles": "COc1ccc(CNC(=O)[C@@H]2CCC[C@@H](NCc3cccnc3)CN(C)C(=O)C2)cc1", "activity % (negative = inhibition)": "inactive: -2.15% [at 57.5 µM]"}, {"smiles": "COCC1CN(C)CC12CCN(C(=O)Cc1ccc(OC)c(Cl)c1)CC2", "note": "(stereo not given)", "activity % (negative = inhibition)": "inactive: -6.13%"}, {"smiles": "COCCN1CCOC[C@H]2CCN(C(=O)c3cnccn3)C[C@H]21", "activity % (negative = inhibition)": "inactive: 0.963%"}, {"smiles": "COc1cccc([S+](=O)([O-])N2CCC3(C2)N=C(c2cccnc2)C(=O)N3)c1", "note": "(stereo not given)", "activity % (negative = inhibition)": "inactive: 4.07%"}, {"smiles": "C=CCN(C)C(=O)CC1COc2ccc(C(=O)N(C)C)cc2N1C", "note": "(stereo not given)", "activity % (negative = inhibition)": "inactive: 7.81%"}, {"smiles": "COc1ccc2c(c1)C(CN1CCN(CC(=O)OC(C)(C)C)CC1)=CC(C)(C)O2", "activity % (negative = inhibition)": "inactive: 1.29%"}, {"smiles": "O=C(O)C1Cn2cccc2C(=O)N1Cc1cccnc1", "note": "(stereo not given)", "activity % (negative = inhibition)": "inactive: 10%"}, {"smiles": "COc1ccc(CNC(=O)C2CN(S(=O)(=O)C3CC3)CC23CCCCC3)cc1", "note": "(stereo not given)", "activity % (negative = inhibition)": "inactive: 42.6%"}, {"smiles": "CCn1nc(C)cc1C(=O)NCc1cccnc1N1CCOCC1", "activity % (negative = inhibition)": "inactive: 9.45%"}, {"smiles": "CN(C)C[C@@H]1CN(Cc2ccccn2)C[C@H]1NC(=O)c1ccc(Cl)s1", "activity % (negative = inhibition)": "inactive: 9.43%"}, {"smiles": "COc1cccc([S+](=O)([O-])N2CCC23Cc2ccccc2NC3=O)c1", "note": "(stereo not given)", "activity % (negative = inhibition)": "inactive: -0.739%"}, {"smiles": "O=C(O)c1ccnc(-c2ccnc(NCC(O)c3ccccc3Cl)n2)c1", "note": "(stereo not given)", "activity % (negative = inhibition)": "inactive: 0.618%"}, {"smiles": "c1ccc(N2CCCC(c3nccn3Cc3ccncc3)C2)nc1", "note": "(stereo not given)", "activity % (negative = inhibition)": "inactive: -2.58%"}]}]}
